Literature values in patent US20150209335A1, “METHODS AND SMALL MOLECULE THERAPEUTICS COMPRISING FUSED ELPS” (UNIVERSITY OF SOUTHERN CALIFORNIA, priority 2012, published 2015).

Details: cited from earlier work

CO[C@H]1C[C@@H]2CC[C@@H](C)[C@@](O)(O2)C(=O)C(=O)N2CCCC[C@H]2C(=O)O[C@H]([C@H](C)C[C@@H]2CC[C@@H](O)[C@H](OC)C2)CC(=O)[C@H](C)/C=C(\C)[C@@H](O)[C@@H](OC)C(=O)[C@H](C)C[C@H](C)/C=C/C=C/C=C/1C [rapamycin, (3S,6R,7E,9R,10R,12R,14S,15E,17E,19E,21S,23S,26R,27R,34aS)-9,10,12,13,14,21,22,23,24,25,26,27,32,33,34,34a-hexadecahydro-9,27-dihydroxy-3-[(1R)-2-[(1S,3R,4R)-4-hydroxy-3-methoxycyclohexyl]-1-methylethyl]-10,21-dimethoxy-6,8,12,14,20,26-hexamethyl-23,27-epoxy-3H-pyrido[2,1-c][1,4]-oxaazacyclohentriacontine-1,5,11,28,29 (4H,6H,31H)-pentone]
solubility in H2O: less than 10 μM
